Results as given in patent publication US20230280353A1, “DETECTION SYSTEM OF INTERACTION BETWEEN KNOWN MOLECULES AND PROTEINS BASED ON COVALENT CONNECTION AND IDENTIFICATION OR VERIFICATION METHOD THEREOF” (SHANGHAI JIAO TONG UNIVERSITY, priority 2021, published 2023).
No constants are given. Whether binding was seen depends on the method and setting. Some results given as binding are weak or reduced against the parent protein; the word gives no strength. Sequences can lack the tags named with a protein.

The chains behind the UniProt entries cited, without tags or fusion partners. Residues count along the entry.
UniProt P07363, residues 98-257: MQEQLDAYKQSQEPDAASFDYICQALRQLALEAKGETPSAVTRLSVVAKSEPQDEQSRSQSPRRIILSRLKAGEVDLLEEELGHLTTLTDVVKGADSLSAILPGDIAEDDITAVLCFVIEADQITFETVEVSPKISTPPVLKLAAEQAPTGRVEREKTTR

Key:
[1] = molecular target: CheAs wild type (CheAs-Flag-His) (UniProt P07363); assay: SPIDER with SAm-PupE-1 and SAm-PupE-2, Western blot
[2] = molecular target: CheAs wild type (CheAs-Flag-His) (UniProt P07363); assay: SPIDER with streptavidin-Pup tetramer made with Pup (E), Western blot
[3] = molecular target: CheAs wild type (CheAs-Flag-His) (UniProt P07363); assay: SPIDER proximity pupylation (SAm-PupE, PafA7KR, ATP), western blot with Flag antibody
[4] = molecular target: CheAs wild type (CheAs-Flag-His) (UniProt P07363); assay: SPIDER proximity pupylation (SAm-PupE, PafA7KR, ATP) with CheAs wild type, western blot with Flag antibody; Biotin-CheZ 0, 0.1, 0.2, 0.4 (µM by the text)

Measured: binding

B1: biotin modified protein CheZ (CheZ with Avi tag) (protein)
chain: MMQPSIKPADEHSAGDIIARIGSLTRMLRDSLRELGLDQAIAEAAEAIPDARDRLYYVVQMTAQAAERALNSVEASQPHQDQMEKSAKALTQRWDDWFADPIDLADARELVTDTRQFLADVPAHTSFTNAQLLEIMMAQDFQDLTGQVIKRMMDVIQEIERQLLMVLLENIPEQESRPKRENQSLLNGPQVDTSKAGVVASQDQVDDLLDSLGF
binds: [1] | [2] | [3] | [4]
